# According to PubChem BioAssay AID485314 (National Center for Advancing Translational Sciences (NCATS), 2010):
# About 4,500 (1.3%) of roughly 340,000 compounds were called active. This list was built around the results that the source calls inconclusive (neither active nor inactive); the mix of calls is not that of the screen. Calls come from the whole dose curve; as a rule, active = well fitted inhibition curve with a large enough effect; inconclusive = small, poorly fitted or top-dose-only effect, or another doubt; inactive = no such curve, though single readings can be large or run the other way. Potencies of inconclusive entries are doubtful fits and often do not repeat.
# Target: DNA polymerase beta (Homo sapiens) (UniProt P06746)
# Assay: qHTS Assay for Inhibitors of DNA Polymerase Beta
# Settings: Pol beta primer extension/strand displacement, fluorescence kinetic; activity change, negative = inhibition: at 114 µM (top of the series)
# Method in brief: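 10 nM enzyme + cpd, 15 min RT; start with substrate 50 nM final; read 0 min and after 10 min RT. Corrected, normalized data; 4-parameter Hill curve fit.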
# % is set by controls: 0 for no effect and ±100 for the full control effect; potency is the fitted concentration of half-maximal effect.
SMILES,Potency,"activity change, negative = inhibition"
Cc1ccc(-n2nc3c(c2NC(=O)c2ccc(Br)o2)CSC3)c(C)c1,"inconclusive: 14.1 µM [inhibitor, single point]",
Cc1c([C@H]2[C@@H](CC#N)C2(C)C)c2ccccc2n1C,"inconclusive: 89.1 µM [inhibitor, single point]",
Cc1cc(/C=C2/C(=N)N3C(=NC2=O)SN=C3S(C)(=O)=O)c(C)n1-c1ccccc1F,inactive,
Cc1ccc([N+](=O)[O-])cc1S(=O)(=O)n1ccnc1C,"inconclusive: 89.1 µM [inhibitor, single point]",
CCCCCCNC(=O)CSc1nccn1Cc1ccccc1,"inconclusive: 0.141 µM [inhibitor, full curve, poor fit]",
N#C/C(=C/c1ccc(N2CCCCC2)o1)C(=O)Nc1ccc2ccccc2c1,"inconclusive: 5.62 µM [inhibitor, full curve]",
C=C(C)C(=O)Nc1cccc(C2=NOC3(C2)C[C@@H](C(N)=O)N(C(=O)[C@H]2CCC(=O)N2)C3)c1 (stereo partly drawn),active: 56.2 µM,
O=Cc1coc2c(ccc3ccccc32)c1=O,active: 79.4 µM,
Cc1ccc(CNC(=O)c2c[nH]c3ccc(S(=O)(=O)N4CCOCC4)cc3c2=O)cc1,"inconclusive: 79.4 µM [inhibitor, partial curve, poor fit]",
O=C(CCCC(=O)N1CCc2ccccc21)N1CCc2ccccc21,inactive,
CCOc1ccc(NC(=O)CN2C(=O)CSC2=O)cc1,"inconclusive: 89.1 µM [inhibitor, single point]",
CCOc1ccc(C2C(C(=O)Nc3ccccc3)=C(C)Nc3nc(-c4ccccc4)nn32)cc1OC (stereo not drawn),"inconclusive: 14.1 µM [inhibitor, single point]",
Cc1ccc(-c2cc(C(=O)Nc3c(C)n(C)n(-c4ccccc4)c3=O)no2)cc1,inactive,
Cc1c(Br)c(O)c(Br)c(O)c1/C=N/n1c(-c2ccccc2)n[nH]c1=S,active: 50.1 µM,
CCOC(=O)c1sc(NC(=O)CNCc2ccccn2)c(C(=O)OCC)c1C,"inconclusive: 56.2 µM [inhibitor, single point]",
CC(C)/C=N/NC(=O)c1cc(Br)ccc1O,"inconclusive: 79.4 µM [inhibitor, partial curve, poor fit]",
CCOc1ccc(C2Nc3cccc4cccc(c34)N2)cc1OC,inactive,
CC(=O)c1ccc(S(=O)(=O)Nc2ccc(-c3cn4c(C)csc4n3)cc2)cc1,inactive,
CC1(C)CC(=O)C2=C(C1)NCN(CCCN1CCOCC1)C2,"inconclusive: 0.251 µM [inhibitor, full curve]",
CCOC(=O)Cc1ccc(NC(=O)N(Cc2ccc(OC)cc2)C2CCN(C(C)=O)CC2)cc1,"inconclusive: 2.24 µM [inhibitor, single point]",
CSc1nsc(NC(=O)CCNC(=O)c2ccc([N+](=O)[O-])cc2)n1,"inconclusive: 70.8 µM [inhibitor, single point]",
O=C(NCCNC(=O)C1CC2CCC1C2)C1CC2CCC1C2 (stereo not drawn),"inconclusive: 89.1 µM [inhibitor, single point]",
Cc1ccc(C(=O)NCc2ccco2)cc1S(=O)(=O)Nc1cccc(C)c1C,"inconclusive: 100 µM [inhibitor, single point]",

SMILES,Potency,"activity change, negative = inhibition"
CCc1ccc(NC(=O)c2sc(-n3nc(C)c(CCC(C)C)c3C)nc2C)cc1,inactive,
COc1ccc(OCc2ccc(C(=O)O)cc2)cc1,"inconclusive: 79.4 µM [inhibitor, single point]",
COc1ccc(CCn2c(C)nc3c(c(=O)c4ccccc4n3C)c2=O)cc1,inactive,
CN(C)C(=S)Nc1ccc(Cc2ccncc2)cc1,"inconclusive: 17.8 µM [inhibitor, partial curve]",
NC(=S)n1[nH]c(-c2ccc([N+](=O)[O-])cc2)c(N=Nc2ccccc2[N+](=O)[O-])c1=O,active: 15.8 µM,
CC1CC(=O)c2cn3c(nc2C1)nc1ccccc13 (stereo not drawn),"inconclusive: 0.141 µM [inhibitor, full curve, poor fit]",
CC(=O)Nc1ccc(NC(=O)C2CCCN(c3nnc(-n4cccc4)s3)C2)cc1 (stereo not drawn),"inconclusive: 28.2 µM [inhibitor, full curve, poor fit]",
O=C(CCn1c(=O)c2cccn2c2cccnc21)N1CCN(c2ccc(F)cc2)CC1,inactive,
c1csc(-c2ncc3ccccn23)c1,"inconclusive: 100 µM [inhibitor, single point]",
COc1ccc(C(=O)Nc2ccc3nc(SCC(=O)N4CCCC4)sc3c2)cc1,"inconclusive: 56.2 µM [inhibitor, partial curve]",
COc1ccccc1CCNC(=O)Cn1ccc2cc(S(=O)(=O)N3CCCCC3)ccc21,inactive,
CCOc1ccc(CNC(=O)CN2C(=O)C(c3ccccc3)Oc3cccnc32)cc1 (stereo not drawn),,inconclusive: -41.2% [inhibitor]
Cc1ccc(/C=C(\NC(=O)c2ccccc2)C(=O)NCCN2CCOCC2)o1,"inconclusive: 63.1 µM [inhibitor, partial curve, poor fit]",
Cc1cccc(NC(=O)CCc2nnc3ccc(NCc4ccco4)nn23)n1,"inconclusive: 35.5 µM [inhibitor, full curve]",
CCC(=O)Nc1cccc(C2=NOC3(C2)C[C@@H](C(N)=O)N(C(=O)CC(c2ccccc2)c2ccccc2)C3)c1 (stereo partly drawn),"inconclusive: 100 µM [inhibitor, single point]",
N#Cc1ccc(/C=N/NC(=S)Nc2ccc(S(=O)(=O)N3CCOCC3)cc2)cc1,inactive,
Cc1ccc(CNC(=O)C2CCN(Cc3nc(-c4ccccc4C)oc3C)CC2)cc1,inactive,
O=C1c2nc3cc(-c4ccco4)[nH]n3c(=O)c2CN1Cc1ccccc1,"inconclusive: 5.62 µM [inhibitor, full curve, poor fit]",
O=c1cc(CN2CCCCCC2)nc2sccn12,"inconclusive: 39.8 µM [inhibitor, single point]",
O=C(NCc1ccccn1)C1CCCN(Cc2cnn(-c3ccccc3)c2-n2cccc2)C1 (stereo not drawn),"inconclusive: 0.631 µM [inhibitor, full curve]",
O=S(=O)(c1cccc2nsnc12)N1CCN(c2ccc(F)cc2)CC1,"inconclusive: 100 µM [inhibitor, single point]",
Cc1cc(C)n2nc(-c3ccccc3)c(-c3ccccc3)c2n1,"inconclusive: 100 µM [inhibitor, single point]",
CCOc1ccc2[nH]cc(C(=O)NCc3ccccc3)c(=O)c2c1,"inconclusive: 4.47 µM [inhibitor, full curve]",

# In a second layout: entries from further up
SMILES	Potency	activity change, negative = inhibition
CCc1ccc(NC(=O)c2sc(-n3nc(C)c(CCC(C)C)c3C)nc2C)cc1	inactive	
COc1ccc(OCc2ccc(C(=O)O)cc2)cc1	inconclusive: 79.4 µM [inhibitor, single point]	
COc1ccc(CCn2c(C)nc3c(c(=O)c4ccccc4n3C)c2=O)cc1	inactive	
CN(C)C(=S)Nc1ccc(Cc2ccncc2)cc1	inconclusive: 17.8 µM [inhibitor, partial curve]	
NC(=S)n1[nH]c(-c2ccc([N+](=O)[O-])cc2)c(N=Nc2ccccc2[N+](=O)[O-])c1=O	active: 15.8 µM	

# (next part)

SMILES,Potency,"activity change, negative = inhibition"
CN(C1CCCCC1)S(=O)(=O)c1ccc2c(c1)c(=O)c(C(=O)N1CCN(c3ccc(F)cc3)CC1)cn2C,inactive,
NC(=O)CSc1nc2cc3c(cc2c(=O)n1CCCCCC(=O)NCc1ccc2c(c1)OCO2)OCO3,inactive,
COc1ccccc1CNC(=O)[C@@H](NC(=O)C1CCN(C(=O)[C@@H]2CCCN2)CC1)C(C)C,inactive,
COc1ccc(NC(=S)NC(=O)/C=C/c2ccco2)cc1,"inconclusive: 28.2 µM [inhibitor, full curve]",
CCOc1ccc(NC(=O)C2CCC(CNc3c(N4CCC(C)CC4)c(=O)c3=O)CC2)cc1 (stereo not drawn),"inconclusive: 39.8 µM [inhibitor, partial curve]",
CCCCOc1ccc(N2C(=O)CC(N(CCc3ccccc3)C(=O)/C=C/C(=O)O)C2=O)cc1 (stereo not drawn),"inconclusive: 70.8 µM [inhibitor, single point]",
C/C=C/COC(=O)c1[nH]c2c(c1C)C(=O)CC(c1ccco1)C2 (stereo not drawn),active: 22.4 µM,
O=C(CSc1nc(-c2ccc(F)cc2)cs1)N1CCN(C(=O)c2ccco2)CC1,"inconclusive: 1.58 µM [inhibitor, full curve, poor fit]",
CC(C)c1cc(C(=O)NCc2ccc(F)cc2)no1,"inconclusive: 89.1 µM [inhibitor, single point]",
CC(C)NC(=O)c1cc(=O)n(C)c(=O)n1C,inactive,
COc1ccc(CCNC(=O)Cc2ccc(OCc3ccccc3)c(OC)c2[N+](=O)[O-])cc1OCc1ccccc1,"inconclusive: 89.1 µM [inhibitor, single point]",
O=C(O)c1ccc(-c2ccc(/C=C3\NC(=O)N(Cc4ccc(Cl)cc4)C3=O)o2)cc1Cl,active: 4.47 µM,
NC(=S)N/N=C/c1ccc(-c2cc(Cl)ccc2Cl)o1,inactive,
O=C(COC(=O)CCC1CCCC1)Nc1nc2c(F)c(F)c(F)cc2s1,inactive,
Cc1ccc(NC(=O)CC(=O)Nc2ccc(C)c(C)c2)cc1C,"inconclusive: 31.6 µM [inhibitor, partial curve]",
O=[N+]([O-])c1cccc(S(=O)(=O)Nc2nc3ccccc3nc2Nc2cccc(S(=O)(=O)N3CCCCC3)c2)c1,"inconclusive: 89.1 µM [inhibitor, single point]",
COc1ccc(NS(=O)(=O)c2ccc(N)c(C(=O)O)c2)cc1,inactive,
COCCCN=C1NN=C(c2cc(C)n(Cc3ccccc3Cl)c2C)CS1,"inconclusive: 0.447 µM [inhibitor, full curve, poor fit]",
Cc1cc(O)ccc1N=Cc1c(C(F)(F)F)[nH][nH]c1=O,active: 14.1 µM,
COc1ccc(NC(=O)c2ccccc2-c2ccccc2)cc1,"inconclusive: 100 µM [inhibitor, single point]",
Cc1nc2ccccc2n1CC(O)COc1ccc(Br)cc1 (stereo not drawn),"inconclusive: 89.1 µM [inhibitor, single point]",
O=C(CSc1nnc2[nH]c(=O)cc(-c3ccccc3)n12)Nc1ccc(OC(F)(F)F)cc1,"inconclusive: 100 µM [inhibitor, single point]",
